A short description of this assay: qHTS Assay for Lipid Storage Modulators in Drosophila S3 Cells.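 For cell number change: cells counted by Cell Tracker Red CMTPX staining in the red channel.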 The following applies: BODIPY lipid droplet fluorescence, 18-24 h; for cell number change: measured here: cell count max response, cells fed with added oleic acid. The method in brief:
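Laser-scanning cytometry quantifies lipid droplet accumulation (500–530 nm total intensity; droplet/cell object ratio) in oleic acid-fed (400 uM added) Drosophila S3 cells treated with a concentration series. 20 uM Triacsin C defined 100% inhibition.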

Where [1] appears, read: measured here: lipid fluorescence (Fed channel) AC50, cells fed with added oleic acid.
Setting [2] is: measured here: cell number channel AC50, cells fed with added oleic acid.

This is an account of results in PubChem BioAssay AID2685 (National Center for Advancing Translational Sciences (NCATS), 2010).

The other results are listed elsewhere or left out. Further columns of the screen follow, without active or inactive calls. The list favours compounds with an active or inconclusive main result. Potencies come from curve fits of mixed quality, noted in brackets.

One may read the AC50 as the midpoint of the concentration-response curve, whichever way the signal moves. The low end stands for greater potency, the high end for weaker potency. For `CNc1c([N+](=O)[O-])cnn1-c1cccc(Cl)n1`, the cell number change came out at 4.41%. Further, the AC50 under setting [1] is 0.82 µM [falling, single point].

For `O=C(Cn1ncc(Cl)c(Cl)c1=O)N1CCN(S(=O)(=O)c2ccc3ccccc3c2)CC1`, the cell number change is -28.3%. Moreover, the concentration at half-maximal activity (AC50) under setting [1] was 13 µM [falling, partial curve].

For `Cc1ccc(CCN2C(Nc3ccccc3)=NC[C@@H]2C)cc1`, the AC50 under setting [1] is 2.59 µM [falling, partial curve, poor fit].

Turning to `COc1cccc(C(=O)OCCN2CCOCC2)c1`, the cell number change was 18.4%.

Take `CN=C1S/C(=C\c2ccc(N3CCOCC3)cc2C)C(=O)N1C`: the cell number change was 6.33%. Further, the AC50 under setting [1] was 0.58 µM [rising, partial curve, poor fit].

As to `COc1cccc(-c2nnc(SC(C(=O)c3c[nH]c4ccccc34)c3ccccc3)n2C)c1` (stereo unspecified), the cell number change was -7.52%. The AC50 under setting [1] was 1.3 µM [rising, partial curve].

For the molecule `COc1ccc(OC)c(C(C)NC(=O)C(C)Cc2ccccc2)c1` (stereo unspecified), the cell number change is 0.088%. For the same molecule, under setting [1], the concentration at half-maximal activity (AC50) is 32.6 µM [falling, single point].

For `CCN(CC)CCCNc1ccc(-c2nnc(-c3ccc(OCC(C)C)cc3)o2)cn1`, the cell number change is -6.41%.

For the molecule `O=C1C=C(Nc2cccc(Cl)c2)CC(c2ccco2)C1` (stereo unspecified), the cell number change is -3.06%. The half-maximal activity concentration (AC50) under setting [2] is 2.06 µM [rising, partial curve]. Also, the AC50 under setting [1] is 5.8 µM [rising, single point].

As for `C/C(=N\NC1=NCCN1)c1ccc(Cl)cc1`, the cell number change is -14.1%. The half-maximal activity concentration (AC50) under setting [1] is 1.3 µM [falling, full curve, poor fit].

For the molecule `c1ccc2c(-c3nnc4n3CCCCC4)c[nH]c2c1`, the cell number change amounted to 1.76%. For the same molecule, the AC50 under setting [1] was 20.6 µM [falling, single point].

In the case of `CCCn1cc(C(CC(=O)O)C(=O)O)c2ccccc21` (stereo unspecified), the cell number change stood at 1.17%. The AC50 under setting [1] was 6.51 µM [falling, single point].

As to `Cc1ccccc1OCC(=O)NCCN1CCCC1`, the cell number change is 1.35%.

For `CCN(CC)S(=O)(=O)c1cc(OC)c(Cl)cc1Cl`, the cell number change turned out to be 6.03%. Also, the half-maximal activity concentration (AC50) under setting [1] is 29.1 µM [rising, partial curve].

Take `O=C(c1cccc([N+](=O)[O-])c1)N1CCN(C(=O)c2ccco2)CC1`: the cell number change is -46.9%.

For the molecule `Nc1c(C(=O)NCc2cccs2)nnn1CC(=O)Nc1cccc(Cl)c1`, the cell number change is -21.3%. Moreover, the AC50 under setting [1] is 2.06 µM [falling, full curve].

For the molecule `Cc1cc2ccccc2c(=O)n1CC(=O)NCC(=O)N1CCN(c2cccc(Cl)c2)CC1`, the cell number change was -15.8%.

With `CC(C)(C)c1ccc(OCC(=O)NNC(=S)NC(=O)c2ccccc2[N+](=O)[O-])c(Br)c1`, the cell number change was -22.1%.

With `CC(=O)Nc1ccc(S(=O)(=O)NC2(C(F)(F)F)NC(=O)N(C3CCCCC3)C2=O)cc1` (stereo unspecified), the cell number change is -39.9%. Further, under setting [2], the concentration at half-maximal activity (AC50) is 0.0231 µM [falling, full curve, poor fit]. Besides, the half-maximal activity concentration (AC50) under setting [1] was 0.00651 µM [falling, full curve, poor fit].

For the molecule `O=C(c1ccc(OCC2CCCO2)cc1)N1CCc2ccccc2C1` (stereo unspecified), the cell number change is -5.55%. Under setting [2], the AC50 is 3.66 µM [falling, single point].

For the molecule `Cn1c(CC(=O)Nc2ccccc2F)nnc1SCC(=O)Nc1ccccc1Br`, the cell number change was -6.58%.

On to `COC(=O)c1sc(=S)n(-c2ccccc2)c1N`, for which, under setting [1], the AC50 is 0.146 µM [falling, full curve].

In the case of `Cc1nn(-c2ccccc2)c2nc(-c3ccncc3)cc(C(=O)NCc3ccco3)c12`, the cell number change is 57.6%. In addition, the concentration at half-maximal activity (AC50) under setting [2] was 7.31 µM [rising, partial curve]. In addition, the concentration at half-maximal activity (AC50) under setting [1] is 16.4 µM [rising, partial curve].

Take `CC(=O)c1ccc(N2CC(C)(C)C2=O)cc1`: the cell number change was -36.8%. For the same molecule, under setting [2], the AC50 was 0.116 µM [falling, full curve]. Besides, the half-maximal activity concentration (AC50) under setting [1] was 8.2 µM [falling, single point].

As to `Cc1sc(NC(=O)c2ccco2)nc1-c1ccc2c(c1)CC(C)N2C(=O)C1CC1` (stereo unspecified), the cell number change is -17%.

With `COc1ccccc1C(=O)Nc1ccc2c(c1)n(C)c(=O)n2C`, the cell number change was -30.7%. Moreover, the half-maximal activity concentration (AC50) under setting [2] was 29.1 µM [falling, single point]. The concentration at half-maximal activity (AC50) under setting [1] is 2.59 µM [rising, partial curve].

In the case of `C=CCNC(=S)N(Cc1ccccc1)Cc1ccccc1`, the cell number change was 16.4%. For the same molecule, the AC50 under setting [1] was 14.6 µM [rising, partial curve].

For the molecule `Cc1cccc(NC(=O)c2cccc3c2C(=O)c2ccccc2-3)c1`, the cell number change is -16.4%. Further, under setting [1], the AC50 was 18.4 µM [falling, partial curve].

`Cc1oc2ccc(O)c(CN3CCOCC3)c2c1C(=O)c1ccc(Cl)cc1`: the cell number change was -34.4%. Besides, the concentration at half-maximal activity (AC50) under setting [2] was 5.17 µM [falling, full curve].

Turning to `COc1ccc(C(=O)Nc2cccc(C(=O)NCc3ccccc3)c2)cc1`, the concentration at half-maximal activity (AC50) is 0.0291 µM [falling, full curve, poor fit] under setting [2] and 29.1 µM [falling, partial curve, poor fit] under setting [1].

Turning to `O=C(c1cccc(S(=O)(=O)N2CCOCC2)c1)N(Cc1ccc(F)cc1)Cc1ccco1`, the cell number change was -4%. Besides, the concentration at half-maximal activity (AC50) under setting [2] is 0.00517 µM [falling, full curve, poor fit]. The concentration at half-maximal activity (AC50) under setting [1] was 0.651 µM [falling, partial curve, poor fit].

For `C[C@@H](NC(=O)OC(C)(C)C)c1nnc(S(=O)(=O)Cc2ccccc2)o1`, the cell number change is -58.4%. The AC50 under setting [2] was 8.2 µM [falling, partial curve]. In addition, the AC50 under setting [1] was 7.31 µM [falling, partial curve].

In the case of `O=C(CCc1ccccc1)Nc1c(F)c(F)c(F)c(F)c1F`, the cell number change is 2.51%. Further, the AC50 under setting [2] was 4.11 µM [falling, single point]. Besides, under setting [1], the AC50 is 29.1 µM [falling, single point].

As to `O=C(CSc1nc2ccccc2o1)NCc1n[nH]c(=O)c2ccccc12`, the cell number change was -7.87%. The AC50 under setting [1] is 0.00651 µM [falling, full curve, poor fit].

As to `COc1ccccc1CNC(=O)c1ccc(-c2ccccc2Cl)o1`, the cell number change is -2.34%. In addition, the concentration at half-maximal activity (AC50) under setting [1] is 7.31 µM [rising, partial curve, poor fit].

In the case of `O=C(Nc1ccc(Cl)cc1)N1CCCN(c2ccc(C(F)(F)F)cc2[N+](=O)[O-])CC1`, the cell number change was -15.5%.

For `CNC(=O)c1cc2c(ccc3ccccc32)oc1=N`, the cell number change was -37.5%. The AC50 under setting [2] was 23.1 µM [falling, single point]. Also, the concentration at half-maximal activity (AC50) under setting [1] is 29.1 µM [falling, single point].

Turning to `CC(NC(=O)CSc1cccc(C(F)(F)F)c1)c1ccccc1` (stereo unspecified), the cell number change worked out at 25.4%. Also, the AC50 under setting [1] was 29.1 µM [rising, single point].

`O=C(c1ccc(Br)cc1)C(CN1CCOCC1)c1ccccc1` (stereo unspecified): the cell number change was -66.3%. In addition, the concentration at half-maximal activity (AC50) under setting [2] is 18.4 µM [falling, partial curve]. The half-maximal activity concentration (AC50) under setting [1] is 20.6 µM [falling, single point].

`Cc1ccc(S(=O)(=O)Oc2ccccc2/C=N/NC(N)=S)cc1`: the cell number change came to 36.3%. For the same molecule, under setting [2], the half-maximal activity concentration (AC50) was 0.092 µM [rising, full curve, poor fit]. The AC50 under setting [1] was 0.366 µM [rising, full curve].

`CCOc1ccccc1NC(=O)/C=C/C(N)=O`: the cell number change is -83.4%. The AC50 under setting [2] is 7.31 µM [falling, partial curve, poor fit]. Besides, under setting [1], the half-maximal activity concentration (AC50) was 0.146 µM [falling, full curve].

As for `CC(=O)C1=C(C)OC(N)=C(C#N)C1c1ccncc1` (stereo unspecified), the cell number change turned out to be 95.9%. Besides, the AC50 under setting [2] is 16.4 µM [rising, partial curve].

Turning to `CCOc1ccc(N(C)S(=O)(=O)c2cc(-c3cc(C)no3)ccc2C(C)C)cc1`, the cell number change amounted to 27.2%. Under setting [1], the AC50 was 2.06 µM [rising, partial curve].

`COc1ccc(N2CC(C(=O)Nc3ccc(S(=O)(=O)Nc4nccs4)cc3)CC2=O)c(OC)c1` (stereo unspecified): the cell number change is -26.9%.

With `CCN(C(=O)COC(=O)Cc1coc2cc(C)ccc12)c1c(N)n(Cc2ccccc2)c(=O)[nH]c1=O`, the cell number change was -8.46%. In addition, the concentration at half-maximal activity (AC50) under setting [2] was 0.731 µM [falling, single point]. The concentration at half-maximal activity (AC50) under setting [1] was 0.82 µM [falling, single point].

On to `CC(C)(C)NC(=O)CSc1ccc(S(=O)(=O)N2CCOCC2)cn1`, for which the cell number change is -1.93%. Moreover, the AC50 under setting [1] is 29.1 µM [rising, single point].

`CCOC(=O)CNC(=S)N(Cc1ccco1)Cc1ccccc1Cl`: the cell number change was 19%.

In the case of `O=C(COc1ccc(Cl)cc1Cl)OCn1nnc2ccccc2c1=O`, the cell number change is -11.9%. In addition, the AC50 under setting [1] is 7.31 µM [falling, single point].

With `Cc1nn(C)cc1CNC(=O)c1ccc(F)cc1`, the cell number change was determined as 6.23%. Further, under setting [1], the AC50 is 0.184 µM [falling, full curve, poor fit].

As to `CCc1cc(Cn2nc(-c3ccccc3)cc2C(=O)O)on1`, the cell number change was -9.04%. Also, the concentration at half-maximal activity (AC50) under setting [2] is 1.3 µM [falling, partial curve]. Besides, the concentration at half-maximal activity (AC50) under setting [1] was 1.16 µM [falling, full curve].

Take `COc1ccc(/C=N\NC(=O)c2ccccc2OC)cc1COc1ccccc1C`: the cell number change was -12.4%. Also, the half-maximal activity concentration (AC50) under setting [1] was 18.4 µM [falling, single point].

Turning to `Cc1ccsc1/C=C1\CCc2ccccc2C1=O`, the cell number change is 93%. In addition, the concentration at half-maximal activity (AC50) under setting [2] is 16.4 µM [rising, partial curve]. Also, the AC50 under setting [1] is 18.4 µM [rising, partial curve].

In the case of `CC(C)[C@@H]1COC(c2cccc(C3=N[C@H](C(C)C)CO3)n2)=N1`, the cell number change came to 13.6%. For the same molecule, the half-maximal activity concentration (AC50) under setting [1] is 2.59 µM [rising, full curve, poor fit].

On to `CC1(c2ccccc2)NC(=O)N(CC(=O)N2CCOCC2)C1=O` (stereo unspecified), for which the cell number change is -18.1%. Under setting [1], the AC50 is 7.31 µM [falling, partial curve].

For the molecule `N#CCCCSc1nnc(-c2ccccn2)o1`, the cell number change was determined as 3.95%.

On to `CCc1ccc(OCCCCCn2ccnc2)cc1`, for which the AC50 under setting [1] was 29.1 µM [falling, single point].

In the case of `CCC(NC(=O)NCc1cccnc1)(C(F)(F)F)C(F)(F)F`, the cell number change turned out to be 2.46%. Under setting [1], the AC50 was 29.1 µM [rising, partial curve, poor fit].

As to `Cc1cc(C(=O)NC2CC(C)(C)Cc3c2cnn3-c2ccccc2)n(C)n1` (stereo unspecified), the cell number change is -15.6%. Also, the AC50 under setting [1] was 0.58 µM [falling, single point].

In the case of `COc1cc(OC)c(C2=NOC(C(=O)N3CCCc4ccccc43)C2)cc1Cl` (stereo unspecified), the cell number change is -77.4%. Further, under setting [2], the half-maximal activity concentration (AC50) was 3.66 µM [falling, full curve]. Besides, the half-maximal activity concentration (AC50) under setting [1] was 9.2 µM [falling, partial curve].

For `CSc1sc(-c2ccnc(SCC(=O)C(C)(C)C)n2)c2c1C(=O)CC(C)(C)C2`, the cell number change was 21.1%. The AC50 under setting [2] was 0.184 µM [rising, full curve, poor fit].
